Some test systems named below: GNMT (human); GNPTAB (human); GOLPH2 (human); GPD1 (human); GPR15 (human); GPRC5C (human); GPSM3 (human); GSTA1 (human); GSTA3 (human).
What all share (experiment): protein microarray (ProtoArray v5.0), streptavidin-Alexa Fluor 647
What all share (details): 3'-biotin; 20 mM Tris (pH 7.5), 5 mM MgCl2, 100 mM KCl, 0.1% Tween-20, A/T-rich and random oligonucleotide blockers; temperature not stated; high values mean tight binding

Assay [1] deals with GPI transamidase component PIG-S (human).

This is one part of the list.

Drawing on PMC5996148, this text covers binding signal for one sequence.

On to “GGTGACAGGGGTATGGGGAGGGG [G4-2 biotinylated (Ct1)]”, for which the binding signal in the assay with GNMT (human) is -0.388 z-score; in the assay on GNPTAB (human), -0.361 z-score; in the assay with GOLPH2 (human), -0.374 z-score; with GPD1 (human) it was -0.399 z-score; in assay [1], -0.381 z-score; with GPR15 (human) it was -0.363 z-score. The binding signal with GPRC5C (human) is -0.376 z-score; in the assay on GPSM3 (human), -0.397 z-score; in the assay on GSTA1 (human), -0.382 z-score; in the assay on GSTA3 (human), -0.389 z-score.
